From publication PMC3166162, “A Dual Binding Mode for RhoGTPases in Plexin Signalling” (PLoS Biology, 2011) come the findings set out here.

By UniProt entry, the sequences of proteins in these tests, tags left out. Where a name states a change or a piece, a line headed by the entry shows the natural chain unless it says otherwise. Chains listed by the source or under a name are the forms on record and can include a tag or linker.
Plexin-B1Δ2 Leu1815Glu (O43157, form named): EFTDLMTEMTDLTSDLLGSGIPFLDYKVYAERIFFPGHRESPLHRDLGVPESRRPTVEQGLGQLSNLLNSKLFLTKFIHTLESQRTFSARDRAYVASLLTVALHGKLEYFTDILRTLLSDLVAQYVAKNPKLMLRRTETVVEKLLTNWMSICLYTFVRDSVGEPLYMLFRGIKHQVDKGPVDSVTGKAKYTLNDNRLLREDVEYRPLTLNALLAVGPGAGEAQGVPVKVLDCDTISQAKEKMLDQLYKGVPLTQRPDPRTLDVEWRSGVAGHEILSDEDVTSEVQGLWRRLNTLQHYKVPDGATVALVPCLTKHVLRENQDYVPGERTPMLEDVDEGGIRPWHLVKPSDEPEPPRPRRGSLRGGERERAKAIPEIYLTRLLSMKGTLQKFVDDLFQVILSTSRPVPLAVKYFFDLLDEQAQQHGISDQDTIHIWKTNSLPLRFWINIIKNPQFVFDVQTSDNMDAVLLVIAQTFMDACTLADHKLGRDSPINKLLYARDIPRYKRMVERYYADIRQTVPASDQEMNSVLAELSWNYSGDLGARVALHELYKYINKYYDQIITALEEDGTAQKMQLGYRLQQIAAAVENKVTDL
Plexin-B1_(cyto) Leu1815Glu (O43157, form named): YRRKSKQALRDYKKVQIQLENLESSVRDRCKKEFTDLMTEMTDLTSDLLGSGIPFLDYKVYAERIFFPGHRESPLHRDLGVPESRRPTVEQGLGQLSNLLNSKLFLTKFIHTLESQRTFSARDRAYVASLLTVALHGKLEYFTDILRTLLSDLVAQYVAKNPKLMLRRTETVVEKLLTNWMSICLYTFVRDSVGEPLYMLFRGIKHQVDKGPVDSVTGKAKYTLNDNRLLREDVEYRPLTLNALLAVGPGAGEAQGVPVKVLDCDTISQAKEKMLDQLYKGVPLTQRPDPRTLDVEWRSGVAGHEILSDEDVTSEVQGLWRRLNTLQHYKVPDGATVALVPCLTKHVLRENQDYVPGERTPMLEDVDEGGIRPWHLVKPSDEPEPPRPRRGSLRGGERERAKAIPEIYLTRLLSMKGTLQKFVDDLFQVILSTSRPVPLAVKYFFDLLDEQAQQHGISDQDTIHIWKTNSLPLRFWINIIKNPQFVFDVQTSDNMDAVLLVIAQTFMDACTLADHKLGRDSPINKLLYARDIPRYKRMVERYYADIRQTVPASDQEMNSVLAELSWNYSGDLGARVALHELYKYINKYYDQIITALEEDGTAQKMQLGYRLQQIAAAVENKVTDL
Plexin-B1_(cyto) Leu1815Pro (O43157, form named): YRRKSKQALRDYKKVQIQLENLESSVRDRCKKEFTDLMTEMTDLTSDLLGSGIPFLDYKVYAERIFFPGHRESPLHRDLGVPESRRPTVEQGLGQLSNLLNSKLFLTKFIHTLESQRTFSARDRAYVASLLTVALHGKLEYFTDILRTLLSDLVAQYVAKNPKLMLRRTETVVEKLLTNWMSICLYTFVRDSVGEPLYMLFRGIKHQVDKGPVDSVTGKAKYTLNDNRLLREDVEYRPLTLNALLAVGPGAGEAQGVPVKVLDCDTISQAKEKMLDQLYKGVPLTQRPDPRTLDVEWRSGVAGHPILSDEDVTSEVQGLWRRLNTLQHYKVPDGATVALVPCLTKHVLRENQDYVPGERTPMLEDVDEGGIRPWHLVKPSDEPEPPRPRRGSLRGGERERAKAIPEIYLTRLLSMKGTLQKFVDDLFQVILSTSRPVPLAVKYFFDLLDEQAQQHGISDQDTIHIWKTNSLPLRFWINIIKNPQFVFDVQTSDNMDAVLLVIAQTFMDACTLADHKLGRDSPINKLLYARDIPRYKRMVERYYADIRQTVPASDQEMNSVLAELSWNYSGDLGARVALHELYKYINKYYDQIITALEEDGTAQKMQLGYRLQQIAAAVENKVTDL
Plexin-B1_(cyto) Trp1807Glu (O43157, form named): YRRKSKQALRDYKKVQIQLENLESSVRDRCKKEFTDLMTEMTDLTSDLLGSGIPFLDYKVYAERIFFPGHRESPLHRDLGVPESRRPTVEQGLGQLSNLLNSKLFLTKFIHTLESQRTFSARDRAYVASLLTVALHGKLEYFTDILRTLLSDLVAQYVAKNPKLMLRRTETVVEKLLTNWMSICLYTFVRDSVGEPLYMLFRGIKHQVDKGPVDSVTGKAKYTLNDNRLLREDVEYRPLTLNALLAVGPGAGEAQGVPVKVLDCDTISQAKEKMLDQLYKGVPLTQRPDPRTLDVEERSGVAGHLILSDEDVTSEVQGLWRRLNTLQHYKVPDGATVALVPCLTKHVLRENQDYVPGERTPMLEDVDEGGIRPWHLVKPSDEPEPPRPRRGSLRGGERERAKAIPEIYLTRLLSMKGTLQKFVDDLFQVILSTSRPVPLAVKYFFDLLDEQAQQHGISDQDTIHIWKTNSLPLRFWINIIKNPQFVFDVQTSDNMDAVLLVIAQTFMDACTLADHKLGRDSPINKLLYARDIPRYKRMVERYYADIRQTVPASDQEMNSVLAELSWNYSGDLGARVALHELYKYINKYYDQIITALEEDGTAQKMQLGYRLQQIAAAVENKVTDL

Assay [1] concerns the target Plexin-B1Δ2 Leu1815Glu (human) (UniProt O43157). Description: condition: only at low coupling density (500 RU loaded on the chip); SPR; as a1, low coupling density: 500 RU of the plexin construct loaded on the chip; RhoGTPase 120 nM to 2,000 µM; both purified.
For assay [2], the target named is Plexin-B1_(cyto) Leu1815Glu (human) (UniProt O43157). Briefly: SPR; Biacore T100, 25°C, standard buffer with 0.05% (v/v) Tween 20; biotinylated plexin constructs on streptavidin surfaces (500-5,000 RU); RhoGTPase injected, 120 nM to 500 µM; equilibrium responses fitted to a 1:1 Langmuir model; both purified. A general note: Surface plasmon resonance follows binding to a sensor surface in real time, without labels.

For assay [3], the target named is Plexin-B1_(cyto) Leu1815Pro (human) (UniProt O43157). Described as above.
Assay [4] has as its target Plexin-B1_(cyto) Trp1807Glu (human) (UniProt O43157). Described as above.

These are yes or no findings as the source states them, for the method shown.

B1: Rnd1 (residues 5-200) (enzyme, human, UniProt Q92730 5-200, looked up)
chain: RAPQPVVARCKLVLVGDVQCGKTAMLQVLAKDCYPETYVPTVFENYTACLETEEQRVELSLWDTSGSPYYDNVRPLCYSDSDAVLLCFDISRPETVDSALKKWRTEILDYCPSTRVLLIGCKTDLRTDLSTLMELSHQKQAPISYEQGCAIAKQLGAEIYLEGSAFTSEKSIHSIFRTASMLCLNKPSPLPQKSPV
notes: human Rnd1, residues 5-200; source: E. coli BL21 Star, purified
Take B1: the binding entry in assay [1] is “no binding”; in assay [2] it was “no binding (tested: up to 500 µM RhoGTPase)”; in assay [3] it was “no binding (tested: up to 500 µM RhoGTPase)”; in assay [4], “no binding (tested: up to 500 µM RhoGTPase)”.
